Results are given in words; binding and its absence hold for the method and conditions named. Binding calls can cover weak binding; strength is not graded here.
Biological target: TGFβ
Assay: ELISA, fragment coated at 10 µg/ml, bound TGFβ detected with anti-TGFβ antibody

B1: CTGF fragment encoded by exon 3 (protein)
chain: AKDGAPCIFGGTVYRSGESFQSSCKYQCTCLDGAVGCMPLCSMDVRLPSPDCPFPRRVKLPGKCCEEWVCDEPKDQTVVGPALA
binding: binds

— patent US20040248206A1 (FIBROGEN, published 2004)
